According to PMC8914384:
Results are given in words; binding and its absence hold for the method and conditions named. In cells and extracts the contact can be indirect. Some entries that bind do so weakly or less than the wild type.

By UniProt entry, the sequences of proteins in these tests, tags left out.
UniProt Q9Y4A5: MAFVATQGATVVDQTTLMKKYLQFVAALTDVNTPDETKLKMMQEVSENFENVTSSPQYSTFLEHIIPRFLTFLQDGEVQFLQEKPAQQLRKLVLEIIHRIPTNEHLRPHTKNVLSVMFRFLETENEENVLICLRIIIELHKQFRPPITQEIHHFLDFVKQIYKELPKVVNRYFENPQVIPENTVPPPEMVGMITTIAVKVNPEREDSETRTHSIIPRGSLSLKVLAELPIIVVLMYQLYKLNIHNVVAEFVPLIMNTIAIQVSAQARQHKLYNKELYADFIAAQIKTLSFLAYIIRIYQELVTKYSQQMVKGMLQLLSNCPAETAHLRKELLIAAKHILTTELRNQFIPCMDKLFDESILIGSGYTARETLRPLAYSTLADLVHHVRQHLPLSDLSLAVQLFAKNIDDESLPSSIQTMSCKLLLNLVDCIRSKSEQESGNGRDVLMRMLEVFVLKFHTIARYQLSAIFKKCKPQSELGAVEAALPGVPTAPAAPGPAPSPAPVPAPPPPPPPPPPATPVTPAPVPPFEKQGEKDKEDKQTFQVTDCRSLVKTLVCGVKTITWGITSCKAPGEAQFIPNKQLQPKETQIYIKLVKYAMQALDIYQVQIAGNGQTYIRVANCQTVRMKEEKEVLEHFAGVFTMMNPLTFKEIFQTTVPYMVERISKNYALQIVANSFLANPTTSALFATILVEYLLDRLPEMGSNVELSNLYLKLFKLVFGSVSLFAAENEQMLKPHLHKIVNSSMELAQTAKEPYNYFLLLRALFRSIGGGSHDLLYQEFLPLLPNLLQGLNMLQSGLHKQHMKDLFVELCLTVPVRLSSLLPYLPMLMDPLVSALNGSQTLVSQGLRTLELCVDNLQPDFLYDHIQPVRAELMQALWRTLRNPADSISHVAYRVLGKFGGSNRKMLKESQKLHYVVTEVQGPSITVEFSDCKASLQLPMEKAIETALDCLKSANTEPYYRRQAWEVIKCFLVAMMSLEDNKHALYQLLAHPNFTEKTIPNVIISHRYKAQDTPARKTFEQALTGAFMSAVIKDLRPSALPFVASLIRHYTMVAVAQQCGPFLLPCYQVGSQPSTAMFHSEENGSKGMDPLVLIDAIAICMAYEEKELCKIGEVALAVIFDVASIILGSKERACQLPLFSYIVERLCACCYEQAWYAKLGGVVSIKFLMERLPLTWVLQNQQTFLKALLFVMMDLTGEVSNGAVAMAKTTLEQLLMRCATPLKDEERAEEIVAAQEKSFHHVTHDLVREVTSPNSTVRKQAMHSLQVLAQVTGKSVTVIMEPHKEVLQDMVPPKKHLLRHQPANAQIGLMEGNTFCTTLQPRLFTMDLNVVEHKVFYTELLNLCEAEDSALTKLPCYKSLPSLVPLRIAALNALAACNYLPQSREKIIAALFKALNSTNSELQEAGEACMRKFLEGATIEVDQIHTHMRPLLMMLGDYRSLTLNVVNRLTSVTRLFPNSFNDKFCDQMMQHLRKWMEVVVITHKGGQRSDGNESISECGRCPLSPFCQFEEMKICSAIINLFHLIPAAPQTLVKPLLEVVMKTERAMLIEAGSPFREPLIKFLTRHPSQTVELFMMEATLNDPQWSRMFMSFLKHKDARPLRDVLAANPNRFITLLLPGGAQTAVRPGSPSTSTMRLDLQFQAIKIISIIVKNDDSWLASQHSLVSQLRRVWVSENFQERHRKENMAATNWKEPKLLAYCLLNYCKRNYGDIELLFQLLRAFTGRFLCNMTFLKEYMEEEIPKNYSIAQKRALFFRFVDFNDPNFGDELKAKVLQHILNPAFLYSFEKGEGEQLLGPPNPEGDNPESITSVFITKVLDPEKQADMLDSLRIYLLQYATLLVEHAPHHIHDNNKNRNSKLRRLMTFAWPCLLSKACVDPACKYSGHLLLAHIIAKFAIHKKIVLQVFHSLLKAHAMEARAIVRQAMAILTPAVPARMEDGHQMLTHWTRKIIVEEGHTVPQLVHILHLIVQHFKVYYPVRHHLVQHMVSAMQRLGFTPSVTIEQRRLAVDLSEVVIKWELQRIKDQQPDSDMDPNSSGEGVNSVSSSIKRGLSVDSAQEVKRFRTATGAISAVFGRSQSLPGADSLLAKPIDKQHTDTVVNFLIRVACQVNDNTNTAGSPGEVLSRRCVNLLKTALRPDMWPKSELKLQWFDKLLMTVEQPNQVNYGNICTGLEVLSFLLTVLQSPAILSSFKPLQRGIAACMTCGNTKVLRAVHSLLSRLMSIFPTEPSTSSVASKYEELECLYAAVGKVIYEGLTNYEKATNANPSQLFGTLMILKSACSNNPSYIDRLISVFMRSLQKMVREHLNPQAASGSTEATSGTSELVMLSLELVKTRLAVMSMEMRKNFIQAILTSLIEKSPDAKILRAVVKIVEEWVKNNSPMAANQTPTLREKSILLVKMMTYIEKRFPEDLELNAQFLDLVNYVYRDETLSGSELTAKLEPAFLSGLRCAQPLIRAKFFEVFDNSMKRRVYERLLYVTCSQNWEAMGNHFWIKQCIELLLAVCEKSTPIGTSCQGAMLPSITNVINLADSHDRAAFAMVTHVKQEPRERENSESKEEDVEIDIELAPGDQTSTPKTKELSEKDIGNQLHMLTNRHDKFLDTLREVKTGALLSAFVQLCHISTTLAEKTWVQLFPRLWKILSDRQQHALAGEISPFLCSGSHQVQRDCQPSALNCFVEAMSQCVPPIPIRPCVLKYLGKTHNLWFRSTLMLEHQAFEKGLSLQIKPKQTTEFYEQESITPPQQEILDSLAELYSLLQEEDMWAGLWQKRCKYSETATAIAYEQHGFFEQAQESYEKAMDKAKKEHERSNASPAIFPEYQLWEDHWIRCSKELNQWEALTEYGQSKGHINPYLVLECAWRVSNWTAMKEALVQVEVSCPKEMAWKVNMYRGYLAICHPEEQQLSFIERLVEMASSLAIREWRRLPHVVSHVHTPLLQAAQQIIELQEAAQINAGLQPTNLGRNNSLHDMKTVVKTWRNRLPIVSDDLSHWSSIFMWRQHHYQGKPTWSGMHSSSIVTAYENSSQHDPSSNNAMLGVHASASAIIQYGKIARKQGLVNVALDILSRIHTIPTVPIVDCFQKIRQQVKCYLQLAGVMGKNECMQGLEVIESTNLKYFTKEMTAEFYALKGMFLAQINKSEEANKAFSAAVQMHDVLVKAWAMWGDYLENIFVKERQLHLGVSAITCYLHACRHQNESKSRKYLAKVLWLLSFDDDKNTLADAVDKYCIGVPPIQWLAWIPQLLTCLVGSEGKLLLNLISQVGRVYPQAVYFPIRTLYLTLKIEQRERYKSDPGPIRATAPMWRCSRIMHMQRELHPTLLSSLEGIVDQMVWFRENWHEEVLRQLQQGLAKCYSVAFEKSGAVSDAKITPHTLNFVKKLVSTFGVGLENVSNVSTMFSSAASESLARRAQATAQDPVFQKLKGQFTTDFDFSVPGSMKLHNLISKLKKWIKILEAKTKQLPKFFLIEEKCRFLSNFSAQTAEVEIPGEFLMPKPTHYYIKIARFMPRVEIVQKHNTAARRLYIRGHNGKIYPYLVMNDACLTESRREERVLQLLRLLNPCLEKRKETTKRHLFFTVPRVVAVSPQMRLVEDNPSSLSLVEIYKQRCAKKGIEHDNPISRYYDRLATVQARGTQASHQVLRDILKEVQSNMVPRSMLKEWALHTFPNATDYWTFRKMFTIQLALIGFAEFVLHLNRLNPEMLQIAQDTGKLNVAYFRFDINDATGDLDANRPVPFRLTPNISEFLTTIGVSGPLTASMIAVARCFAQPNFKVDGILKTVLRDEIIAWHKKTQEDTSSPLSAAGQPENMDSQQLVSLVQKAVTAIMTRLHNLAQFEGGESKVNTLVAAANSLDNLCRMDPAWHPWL
UniProt O43524: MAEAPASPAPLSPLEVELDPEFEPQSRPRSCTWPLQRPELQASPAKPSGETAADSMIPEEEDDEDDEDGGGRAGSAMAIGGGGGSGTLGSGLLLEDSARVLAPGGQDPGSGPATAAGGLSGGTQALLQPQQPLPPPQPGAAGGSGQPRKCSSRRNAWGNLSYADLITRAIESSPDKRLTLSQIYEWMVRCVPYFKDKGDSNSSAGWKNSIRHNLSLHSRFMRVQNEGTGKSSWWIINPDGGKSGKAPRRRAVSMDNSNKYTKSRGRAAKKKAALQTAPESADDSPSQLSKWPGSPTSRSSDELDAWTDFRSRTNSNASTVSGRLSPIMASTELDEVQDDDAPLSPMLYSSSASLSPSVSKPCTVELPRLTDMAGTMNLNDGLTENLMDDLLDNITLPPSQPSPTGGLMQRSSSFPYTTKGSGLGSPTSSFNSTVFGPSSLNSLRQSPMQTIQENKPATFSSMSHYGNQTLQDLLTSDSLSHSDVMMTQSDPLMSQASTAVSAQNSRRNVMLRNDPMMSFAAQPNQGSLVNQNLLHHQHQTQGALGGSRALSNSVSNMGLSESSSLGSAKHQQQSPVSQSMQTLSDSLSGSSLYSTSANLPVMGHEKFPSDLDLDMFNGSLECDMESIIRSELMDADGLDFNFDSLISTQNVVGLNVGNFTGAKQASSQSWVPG

Molecular target: FLAG.TRRAP (FLAG-tagged TRRAP) (human) (UniProt Q9Y4A5)
Experiment: co-IP; α-FLAG IP (anti-FLAG M2 magnetic beads) of FLAG.TRRAP from lysates of HEK293 overexpressing WT HA.FoxO3; immunoblot

In the case of “HA.FoxO3 wt (WT HA.FoxO3 with functional PKB phosphorylation sites) (from UniProt O43524 1-673)”, the binding is reported as “binds”.
